This experiment addresses 猴CD73全长 on CHOK1-cynoCD73细胞 (猴 (cyno)). In words: flow cytometry on CHOK1-cynoCD73 cells.

These are yes or no findings as the source states them, for the method shown. Some entries that bind do so weakly or less than the wild type.

B1: 人源化CQ137单抗(137-1) (antibody, V domains shown)
VH: QVQLVQSGAEVKKPGASVKVSCKASGYTFTGYYIHWVRQAPGQGLEWMGRINPYNGATTYNQNFKDRVTMTVDKSTSTAYMELRSLRSDDTAVYYCARFHYGAPDYWGQGTLVTVSS
VL: DIQMTQSPSSLSASVGDRVTITCKASQDINTYLTWFQQKPGKAPKTLIYRANILVDGVPSRFSGSGSGQDYTLTISSLQPEDFATYYCLQYDEFPLTFGGGTKVEIKR
For B1, the binding result was “binds”.

B2: 人源化CQ137单抗(137-3) (antibody, V domains shown)
VH: QVQLVQSGAEVKKPGSSVKVSCKASGYSFTGYYIHWVRQAPGQGLEWMGRINPYNGATTYNQNFKDRVTITVDKSTSTAYMELSSLRSEDTAVYYCARFHYGAPDYWGQGTLVTVSS
VL: DIQMTQSPSSLSASVGDRVTITCKASQDINTYLTWYQQKPGKAPKTLIYRANILVDGVPSRFSGSGSGTDFTLTISSLQPEDFATYYCLQYDEFPLTFGGGTKVEIKR
With B2, the binding entry is given as “binds”.

B3: 人源化CQ137单抗(137-2) (antibody, V domains shown)
VH: QVQLVQSGAEVKKPGASVKVSCKASGYSFTGYYIHWVRQAPGQGLEWMGRINPYNGATTYNQNFKDRVTMTVDKSTSTAYMELRSLRSDDTAVYYCARFHYGAPDYWGQGTLVTVSS
VL: DIQMTQSPSSLSASVGDRVTITCKASQDINTYLTWFQQKPGKAPKSLIYRANILVDGVPSRFSGSGSGTDFTLTISSLQPEDFATYYCLQYDEFPLTFGGGTKVEIKR
For B3, the binding entry was “binds”.

The values above are taken from patent CN112552406A.
